Results: PubChem BioAssay AID743266 (National Center for Advancing Translational Sciences (NCATS), 2014)
The whole screen tested about 410,000 compounds, of which about 310 (0.076%) were called active. This list was built around the results that the source calls inconclusive (neither active nor inactive); the mix of calls is not that of the screen. Calls follow the shape of the dose curve; as a rule, active = well fitted activation curve with a large enough effect; inconclusive = small, poorly fitted or top-dose-only effect, or another doubt; inactive = no such curve, though single readings can be large or run the other way. A potency beside an inconclusive call is a rough fit, not a confirmed value.
Also: nearly all actives have a fitted effect of over 55% in size.
Potency is read from the fitted curve at half-maximal effect.

By UniProt entry, the sequences of proteins in these tests, tags left out. Where a name states a change or a piece, a line headed by the entry shows the natural chain unless it says otherwise.
UniProt Q03431: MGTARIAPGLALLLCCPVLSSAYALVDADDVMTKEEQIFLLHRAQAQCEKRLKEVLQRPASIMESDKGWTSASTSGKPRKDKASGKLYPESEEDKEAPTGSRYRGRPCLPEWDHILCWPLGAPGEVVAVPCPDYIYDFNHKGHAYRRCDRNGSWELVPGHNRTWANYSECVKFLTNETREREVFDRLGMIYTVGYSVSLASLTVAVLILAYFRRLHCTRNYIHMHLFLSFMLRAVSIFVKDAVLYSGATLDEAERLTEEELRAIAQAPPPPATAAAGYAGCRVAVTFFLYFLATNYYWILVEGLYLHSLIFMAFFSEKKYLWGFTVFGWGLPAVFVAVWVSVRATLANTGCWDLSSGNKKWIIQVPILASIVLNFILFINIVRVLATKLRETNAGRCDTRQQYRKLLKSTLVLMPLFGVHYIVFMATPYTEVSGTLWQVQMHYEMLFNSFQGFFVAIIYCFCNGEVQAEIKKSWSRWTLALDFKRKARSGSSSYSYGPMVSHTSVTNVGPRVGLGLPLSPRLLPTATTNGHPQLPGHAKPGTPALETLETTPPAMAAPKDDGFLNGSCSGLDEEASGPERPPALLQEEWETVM

Each compound was assayed against Parathyroid hormone/parathyroid hormone-related peptide receptor (Homo sapiens) (UniProt Q03431) (assay: qHTS for PTHR1 Agonists: Primary Screen). Settings: HEK293 GP2 PTHR1 cells, GloSensor cAMP luminescence, 1 h; activation: at 115 µM (top of the series) unless noted; series mostly up to 115 µM.
In short: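 HEK-293-derived GP2 cells expressing PTHR1 and a GloSensor cAMP reporter, 3,000/well, plated overnight, given luciferin plus IBMX (each 0.5 mM as added) for 1 h at 37 °C, then compound for 1 h at 37 °C. Luminescence was read after 15 min at room temperature.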
`CNC(=O)C1CCC(Cn2c(=O)c3sccc3n(CC(=O)N3CCCC3)c2=O)CC1` (configuration not stated) was tested, and the Potency was inconclusive: 112 µM [activator, single point]. For `COc1cccc(CNc2ncnc3c2nnn3C)c1`, the Potency was inconclusive: 112 µM [activator, single point]. With `O=C(Cc1cccc(C(F)(F)F)c1)Nc1ccc(S(=O)(=O)N2CCCC2)cc1` the activation was inconclusive: -43.4% [activator]. For `O=C(COc1ccccc1)Nc1nnc(-c2ccc(Cl)s2)o1`, the “activation” value was inactive: 13.8%. `Cc1nnc(N2CCC(C(=O)NCc3ccc(F)cc3)CC2)c2nn(-c3ccc(Cl)cc3)c(C)c12` was tested, and the Potency was inconclusive: 35.5 µM [activator, partial curve, poor fit]. `COc1cc(C2C3=C(COC3=O)Oc3cc4c(cc32)OCO4)cc(OC)c1OC(C)=O` (configuration not stated) was tested, and the Potency was inconclusive: 12.6 µM [activator, partial curve]. `Cc1nc2sc(C(c3ccc(Br)cc3)N3CC(C)OC(C)C3)c(O)n2n1` (configuration not stated) was tested, and the Potency was inconclusive: 7.08 µM [activator, full curve, poor fit]. In the case of `Cc1ccc2nc3cc([N+](=O)[O-])cc([N+](=O)[O-])c3cc2c1`, the “activation” value is reported as inactive: -76.1%. In the case of `CCOC(=O)Cn1nc(-c2ccc(F)cc2)cc(Cc2ccccc2)c1=O`, the “outcome” value is reported as “inactive”. `COc1ccc(/C(C)=N/NC(=O)CNC(=O)c2ccncc2)c(OC)c1` was tested, and the activation was inconclusive: -92.1% [activator]. `COc1cc(NC(=O)CCN2CCN(c3ccccc3OC)CC2)cc(OC)c1` was tested, and the “activation” value was inactive: -24.8%. In the case of `Cc1ccc(C)c(NC(=O)Cn2nnc(C(=O)NCc3ccco3)c2N)c1`, the Potency is reported as inconclusive: 126 µM [activator, single point]. `COc1ccc(C(=O)NCC(=O)N/N=C/c2cccnc2)cc1OC` was tested, and the Potency was inconclusive: 22.4 µM [activator, partial curve, poor fit]. In the case of `COc1ccccc1N(C)C(=O)Cn1c(=O)oc2cc(S(=O)(=O)N3CCCC3)ccc21`, the “activation” value is reported as inactive: -34.4%. For `O=C(Cn1ncc2c([nH]c3ccccc32)c1=O)Nc1ccc(F)cc1F`, the Potency was inconclusive: 44.7 µM [activator, partial curve, poor fit]. `CCN(CC)C1CCS(=O)(=O)C1` (configuration not stated) was tested, and the Potency was inconclusive: 126 µM [activator, single point]. For `CCN(CC(=O)NCc1ccc(Cl)cc1)C(=O)CSc1ccccc1`, the Potency was inconclusive: 39.8 µM [activator, partial curve, poor fit]. In the case of `Cc1ccc2nc(Nc3nc(C)cc(C(F)(F)F)n3)nc(C)c2c1`, the activation is reported as inconclusive: 40.3% [activator]. With `CCC1(C)Cc2ccccc2-c2nc(NCCCO)n(-c3ccccc3)c(=O)c21` (configuration not stated) the Potency was inconclusive: 39.8 µM [activator, single point]. For `Cc1cccc(-n2ncc3c(Nc4c(C)cc(C)cc4C)ncnc32)c1`, the activation was inconclusive: 30.3% [activator]. `Cc1ccc(C2NC(=O)c3c(sc(C)c3C)N2)c(O)c1` (configuration not stated) was tested, and the activation was inconclusive: 1.74% [activator] [at 57.5 µM]. For `O=C(Nc1ccccc1-c1ccccc1)c1ccc(Br)o1`, the “activation” value was inactive: -5.83% [at 57.5 µM]. In the case of `CCCCNC(=O)C1c2ccccc2OCC(=O)N1Cc1ccccc1` (configuration not stated), the activation is reported as inconclusive: 32.4% [activator]. `Cc1ccc(NC(=O)CSc2nnc(CNC(=O)c3ccco3)n2C)cc1` was tested, and the activation was inconclusive: 37.8% [activator]. For `Cc1c(C)c2ccc(OCC(=O)NCCN3CCOCC3)c(C)c2oc1=O`, the Potency was inconclusive: 50.1 µM [activator, partial curve, poor fit]. For `O=C(Nc1ccc(F)cc1)N1CCOCC1`, the “outcome” value was “inactive”. `Cc1ccc(C)c(N(C(=O)c2nsc(Cl)c2Cl)C(C(=O)NC2CCCC2)c2ccc(O)cc2)c1` (configuration not stated) was tested, and the “activation” value was inactive: -19.2%. For `Cc1cc(Cl)ccc1NC(=O)CN1C(=O)COc2ccc(S(=O)(=O)N3CCC(C)CC3)cc21`, the Potency was inconclusive: 50.1 µM [activator, partial curve]. In the case of `CCc1cccc(C)c1NC(=O)NC1COc2ccccc2C1` (configuration not stated), the Potency is reported as inconclusive: 158 µM [activator, single point]. In the case of `C[C@@H](NC(=O)[C@@H]1CCCN1C(=O)[C@@H]1CCCN1C(=O)c1cccc2ccccc12)c1ccccc1`, the “outcome” value is reported as “inactive”. `CCCc1nc2ccccc2n1C(CC)C(=O)NC(C)(C)C` (configuration not stated) was tested, and the Potency was inconclusive: 39.8 µM [activator, partial curve, poor fit]. For `CCOC(=O)C(C(=O)OCC)c1cc(Br)c2noc3c2c1C(=O)c1ccccc1-3`, the “activation” value was inactive: -64.3% [at 57.5 µM]. In the case of `Cc1cc(C)n2nc(SC(C)C(=O)N3CC(C)OC(C)C3)nc2n1` (configuration not stated), the Potency is reported as inconclusive: 3.16 µM [activator, full curve, poor fit]. In the case of `COc1ccccc1CNC(=O)COC(=O)CSc1ccc(F)cc1`, the activation is reported as inconclusive: 30.7% [activator]. With `C/C(=N\NC(=O)C1(C)CC1(Br)Br)c1ccc([N+](=O)[O-])cc1` (configuration not stated) the Potency was inconclusive: 15.8 µM [activator, single point]. With `Cc1ccc(-c2nnn(CCC(=O)N3CCCCC3C)n2)cc1` (configuration not stated) the Potency was inconclusive: 70.8 µM [activator, single point]. In the case of `N#Cc1cccc(NC(=O)COC(=O)Cn2nc(-c3ccccc3)oc2=O)c1`, the Potency is reported as inconclusive: 15.8 µM [activator, partial curve]. In the case of `Cc1ccc(-n2nc3c(N4CCC(C(=O)N(C)Cc5ccccc5)CC4)nnc(C)c3c2C)cc1`, the Potency is reported as inconclusive: 89.1 µM [activator, partial curve, poor fit]. With `C=CCNc1nc(NCCOc2ccccc2Cl)c2sc(-c3ccccc3)cc2n1` the activation was inconclusive: 25.2% [activator]. With `COc1ccc(-n2c(C)c(C)c3c(NCCN(C)C)ncnc32)cc1` the Potency was inconclusive: 2.24 µM [activator, full curve, poor fit]. `COC(=O)CN(c1ccc(F)cc1)S(=O)(=O)c1ccc2c(c1)OCCO2` was tested, and the Potency was inconclusive: 35.5 µM [activator, single point]. In the case of `O=C(CSCc1c(Cl)cccc1Cl)NCC1CCCO1` (configuration not stated), the activation is reported as inconclusive: 32.8% [activator] [at 57.5 µM]. In the case of `OCCN(CCO)CC(O)COc1ccc(C23CC4CC(CC(C4)C2)C3)cc1` (configuration not stated), the “activation” value is reported as inactive: -0.712%. With `CC(C)(C)NC(=O)c1ccc2c(c1)C(=O)N(Cc1ccco1)C2=O` the Potency was inconclusive: 22.4 µM [activator, single point]. For `O=S(=O)(c1ccc(SCc2ccccc2)nc1)N1CCCCC1`, the Potency was inconclusive: 112 µM [activator, single point]. In the case of `CCCOc1ccc(NC2=CC(=O)CC(C)(C)C2)cc1`, the Potency is reported as inconclusive: 12.6 µM [activator, partial curve, poor fit]. For `COc1ccccc1N1CCN(C2CC(=O)N(c3cccc(Br)c3)C2=O)CC1` (configuration not stated), the activation was inconclusive: 4.64% [activator]. With `C/C(=C\CNc1ncnc2nc[nH]c12)CO` the Potency was inconclusive: 11.2 µM [activator, partial curve]. For `CCOc1ccc(NC(=O)Cn2nnc(C(=O)NCc3ccccc3OC)c2N)cc1`, the Potency was inconclusive: 8.91 µM [activator, partial curve, poor fit]. For `COc1cc(/C=N\NC(=O)CNC(=O)C(c2ccccc2)c2ccccc2)ccc1O`, the “outcome” value was “inactive”. With `CCc1ccccc1NC(=O)CSc1nc2n[nH]c(C)c2c(=N)n1-c1cccc(OC)c1` the activation was inconclusive: 64% [activator] [at 57.5 µM]. With `CCC(=O)OCCNc1cc(Sc2nc3ccccc3[nH]2)c2nonc2c1[N+](=O)[O-]` the “activation” value was inactive: -83.9%. In the case of `Cc1cccc2cc(CN(Cc3cccs3)S(=O)(=O)c3ccc4c(c3)OCCO4)c(=O)[nH]c12`, the activation is reported as inconclusive: 35.3% [activator]. For `CCOC(=O)c1csc(N/N=C2\CCc3ccccc32)n1`, the activation was inconclusive: -77.2% [activator]. In the case of `COCC1=C(C(=O)OC)C(c2ccco2)n2ncnc2N1` (configuration not stated), the Potency is reported as inconclusive: 100 µM [activator, single point]. In the case of `O=C1NC[C@@H](CCCCN2CCN(CC3CCCCC3)C(=O)C2=O)N(CC2CCCCC2)C1=O`, the Potency is reported as inconclusive: 126 µM [activator, single point]. In the case of `CCCC12CN(C(=O)c3ccc([N+](=O)[O-])cc3)CC(C)(CN(C(=O)c3ccc([N+](=O)[O-])cc3)C1)C2=O`, the Potency is reported as inconclusive: 20 µM [activator, full curve]. For `CCOC(=O)C1CCCN(C(=O)CN2C(=O)/C(=C/c3ccc(OC)cc3)Oc3ccccc32)C1` (configuration not stated), the “activation” value was inactive: -17.6%. For `Nc1c(NCc2ccccc2)c(=O)[nH]c(=O)n1Cc1ccccc1`, the Potency was inconclusive: 5.01 µM [activator, partial curve, poor fit]. In the case of `O=C(C[n+]1ccc(/C=N/O)cc1)NCc1ccccc1`, the Potency is reported as inconclusive: 28.2 µM [activator, single point]. In the case of `Cc1ccccc1OCc1nnc(SCC(=O)Nc2ccc(N3CCOCC3)cc2)n1C`, the activation is reported as inconclusive: 57.5% [activator]. With `Cc1c(C)n(Cc2ccc(F)cc2)c2ccc(C(=O)NCCCN3CCOCC3)cc12` the Potency was inconclusive: 44.7 µM [activator, single point]. `Fc1ccc(C(c2nnc(-c3ccccc3)o2)N2CCN(c3ccccc3)CC2)c(Cl)c1` (configuration not stated) was tested, and the “activation” value was inactive: -6.91%. In the case of `CCn1cc(S(=O)(=O)CC(=O)Nc2cc(C)ccc2C)c2ccccc21`, the “activation” value is reported as inactive: -6.04%. In the case of `COc1ccc(C(CNC(=O)CSc2ccccc2F)N2CCOCC2)cc1` (configuration not stated), the Potency is reported as inconclusive: 126 µM [activator, single point]. `COc1cc(OC)c(C2=NOC(C(=O)O)C2)cc1Cl` (configuration not stated) was tested, and the Potency was inconclusive: 44.7 µM [activator, single point]. In the case of `COCCOc1cc(N2C(=O)CSCC2=O)c(Cl)cc1Cl`, the Potency is reported as inconclusive: 10 µM [activator, partial curve, poor fit].
